In the supplement of paper PMC9877034:
Counter-ions that a name gives are not always drawn. Whole data set: some 1,000 compounds, median “cFRET/donor change relative to DMSO, normalised to beta-lapachone positive control (supercomplex I-IV assembly)” near 0.18, cut for the lowest 2% near -1. The list shows a part of the results.

tested on: C2C12 (NDUFB8-AcGFP / COX8A-DsRed-Monomer FRET reporter); assay: cFRET/donor change relative to DMSO, normalised to beta-lapachone positive control (supercomplex I-IV assembly) (fraction of beta-lapachone effect); higher = more respiratory supercomplex assembly; settings: 40 µM; 24 h
Experimental: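 Cells were treated with 40 uM compound for 24 h and imaged on an IN Cell Analyzer 6000. Corrected FRET was divided by donor signal (cFRET/donor) and measured in two replicate experiments. The score is (mean cFRET/donor of compound - mean DMSO) / (mean beta-lapachone 40 uM - mean DMSO). Compounds flagged for prominent cell death, abnormal morphology or decreased cell number were excluded.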

Row | Structure (SMILES) | cFRET/donor change
1 | Nc1ccn([C@@H]2O[C@H](CO)[C@@H](O)C2(F)F)c(=O)n1 [Gemcitabine hydrochloride] | 0.261
2 | COc1ccccc1N1CCN(CCN(C(=O)C2CCCCC2)c2ccccn2)CC1 | 0.216
3 | Nc1ncnc2c1ncn2[C@@H]1O[C@H](CO)[C@@H](O)[C@H]1O [Adenosine] | 0.127
4 | CN1C[C@H](O)[C@@H](O)[C@H](O)[C@H]1CO [N-Methyl-1-deoxynojirimycin] | 0.389
5 | C=C1C[C@@]23CC[C@H]4[C@@](C)(CCC[C@@]4(C)C(=O)O)[C@@H]2CC[C@]1(O)C3 [Steviol] | 0.397
6 | CN(C)CC/C=C1/c2ccccc2Sc2ccc(Cl)cc21 [Chlorprothixene hydrochloride] | 0.39
7 | CC(=O)[C@H]1CC[C@H]2[C@@H]3CCC4=CC(=O)CC[C@]4(C)[C@H]3CC[C@]12C [Progesterone] | 0.445
8 | C[C@]12CC[C@@H]3c4ccc(O)cc4CC[C@H]3[C@@H]1CC[C@@H]2O [beta-Estradiol] | 0.311
9 | CC1=C(C(=O)O)N2C(=O)[C@@H](NC(=O)[C@H](N)C3=CCC=CC3)[C@H]2SC1 [Cephradine] | 0.505
10 | CCc1c(C)[nH]c2c1C(=O)C(CN1CCOCC1)CC2 (stereo not drawn) [Molindone hydrochloride] | 0.417
11 | CN1CCc2cc(Cl)c(O)cc2[C@@H](c2ccccc2)C1 | 0.549
12 | Nc1ccc(N2C(=O)c3ccccc3C2=O)c(Cl)c1 [N-(4-Amino-2-chlorophenyl)phthalimide] | -0.0444
13 | CNS(=O)(=O)CCc1ccc2[nH]cc(C3CCN(C)CC3)c2c1 [Naratriptan hydrochloride] | 0.347
14 | CC1=C(/C=C/C(C)=C/C=C/C(C)=C/C=C/C=C(C)/C=C/C=C(C)/C=C/C2=C(C)C(=O)[C@@H](O)CC2(C)C)C(C)(C)C[C@H](O)C1=O [Astaxanthin] | -0.0722
15 | CC(=O)Oc1ccccc1C(=O)O [Acetylsalicylic acid] | 0.314
16 | O=C(O)[C@H]1NCCC[C@H]1C(=O)O (racemic) [(±)-cis-Piperidine-2,3-dicarboxylic acid] | -0.226
17 | NC(=O)C1=CN(C2OC(COP(=O)(O)OP(=O)(O)OC[C@H]3O[C@@H](n4cnc5c(N)ncnc54)C(OP(=O)(O)O)[C@H]3O)C(O)C2O)C=CC1 (stereo partly drawn) [NADPH tetrasodium] | -0.198
18 | CC(O)C(O)[C@H]1CNc2nc(N)[nH]c(=O)c2N1 (stereo partly drawn) [(6R)-5,6,7,8-Tetrahydro-L-biopterin hydrochloride] | 0.491
19 | CC1=C(/C=C/C(C)=C/C=C/C(C)=C/C(=O)O)C(C)(C)CCC1 [Retinoic acid] | 0.0818
20 | OCC1OC(n2cnc3c(NC4CCCCC4)ncnc32)C(O)C1O (stereo not drawn) [N6-Cyclohexyladenosine] | 0.295
21 | N[C@@H](Cc1c[nH]c2ccc(O)cc12)C(=O)O [5-Hydroxy-L-tryptophan] | 0.0781
22 | O=C(O)/C=C/c1ccc(O)c(O)c1 [Caffeic Acid] | 0.339
23 | COc1cc2nc(N(C)CCCNC(=O)C3CCCO3)nc(N)c2cc1OC (stereo not drawn) [Alfuzosin hydrochloride] | 0.0541
24 | CC(=O)O[C@]1(C(C)=O)CC[C@H]2[C@@H]3C=C(Cl)C4=CC(=O)[C@@H]5C[C@@H]5[C@]4(C)[C@H]3CC[C@@]21C [Cyproterone acetate] | 0.0328
25 | N[C@@H]1CONC1=O [D-Cycloserine] | 0.129

Row | Structure (SMILES) | cFRET/donor change
26 | O=C(O)COCCN1CCN(C(c2ccccc2)c2ccc(Cl)cc2)CC1 (stereo not drawn) [Cetirizine dihydrochloride] | 0.511
27 | Cc1ccc(S(=O)(=O)N[C@@H](Cc2ccccc2)C(=O)CCl)cc1 [N-p-Tosyl-L-phenylalanine chloromethyl ketone] | 0.262
28 | CC(C)NCC(O)COc1ccc(CCOCC2CC2)cc1 (stereo not drawn) [Betaxolol hydrochloride] | 0.18
29 | C[N+](C)(C)CC=O [Betaine aldehyde chloride] | -0.0277
30 | OC[C@H]1O[C@@H](n2cnc3c(NC4CCCC4)ncnc32)[C@H](O)[C@@H]1O [N6-Cyclopentyladenosine] | 0.479
31 | CCCn1c(=O)[nH]c(=O)c2[nH]cnc21 [3-n-Propylxanthine] | 0.315
32 | C1COC(NC(C2CC2)C2CC2)=N1 [Rilmenidine hemifumarate] | 0.52
33 | Cn1c(=O)[nH]c2ncn(C)c2c1=O [1,7-Dimethylxanthine] | 0.461
34 | Fc1ccc(CN(C2=NCCN2)c2c(Cl)cccc2Cl)cc1 [IMID-4F hydrochloride] | 0.313
35 | Cc1nn(-c2ccccc2)c(C)c1C=NN1CCN(Cc2ccccc2)CC1 | 0.373
36 | Oc1cc2c(c(Cl)c1O)CCNCC2c1ccccc1 (racemic) [(±)-6-Chloro-PB hydrobromide] | 2.85
37 | C[C@H]1c2cccc(O)c2C(=O)C2=C(O)[C@]3(O)C(=O)C(C(N)=O)=C(O)[C@@H](N(C)C)[C@@H]3[C@@H](O)[C@@H]21 [Doxycycline hydrochloride] | -0.16
38 | C[C@](N)(Cc1ccc(O)c(O)c1)C(=O)O [L-alpha-Methyl DOPA] | 0.341
39 | c1cnc(N2CCN(Cc3ccc4c(c3)OCO4)CC2)nc1 [Piribedil maleate] | 0.16
40 | O=C(O)CNC(=O)C(CS)Cc1ccccc1 (racemic) [DL-Thiorphan] | -0.109
41 | OC[C@H]1NC[C@H](O)[C@@H](O)[C@@H]1O [1-Deoxynojirimycin hydrochloride] | 0.114
42 | Cc1cc(Nc2ncc3cc(-c4c(Cl)cccc4Cl)c(=O)n(C)c3n2)ccc1F | -0.253
43 | CN[C@H](CC(=O)O)C(=O)O [N-Methyl-D-aspartic acid] | 0.156
44 | Cn1c(=O)c2[nH]c(-c3ccccc3)nc2n(C)c1=O [1,3-Dimethyl-8-phenylxanthine] | -1.5
45 | CN1CCC[C@@H]1Cc1c[nH]c2ccc(CCS(=O)(=O)c3ccccc3)cc12 [Eletriptan hydrobromide] | 0.314
46 | CC(C)[N+](C)(CCOC(=O)C1c2ccccc2Oc2ccccc21)C(C)C [Propantheline bromide] | 0.495
47 | O=C(O)Cc1c[nH]c2ccc(O)cc12 [5-Hydroxyindolacetic acid] | -0.112
48 | CCN(c1nc(N)c(C(=O)NC(=N)N)nc1Cl)C(C)C [5-(N-Ethyl-N-isopropyl)amiloride] | -1.88
49 | Cn1cnc2c1c(=O)[nH]c(=O)n2C [Theobromine] | 0.196
50 | CN(C)C/C=C(/c1ccc(Br)cc1)c1cccnc1 [Zimelidine dihydrochloride] | 0.443

3 entries from above, arranged by count of non-hydrogen atoms, smallest number first:
Row | Structure (SMILES) | cFRET/donor change
1 | Nc1ccn([C@@H]2O[C@H](CO)[C@@H](O)C2(F)F)c(=O)n1 [Gemcitabine hydrochloride] | 0.261
36 | Oc1cc2c(c(Cl)c1O)CCNCC2c1ccccc1 (racemic) [(±)-6-Chloro-PB hydrobromide] | 2.85
5 | C=C1C[C@@]23CC[C@H]4[C@@](C)(CCC[C@@]4(C)C(=O)O)[C@@H]2CC[C@]1(O)C3 [Steviol] | 0.397

Continued.

Row | Structure (SMILES) | cFRET/donor change
51 | NCCCNCCCCNCCCN [Spermine tetrahydrochloride] | 0.457
52 | CCN(CC)CCNC(=O)c1cc(Cl)c(N)cc1OC [Metoclopramide hydrochloride] | 0.00585
53 | CC(=O)N[C@@H](Cc1c[nH]c2ccccc12)C(=O)OCc1cc(C(F)(F)F)cc(C(F)(F)F)c1 | 0.476
54 | NC/C=C/C(=O)O [(E)-4-amino-2-butenoic acid] | 0.284
55 | CCN(CC)CCOC(=O)c1cc(Cl)c(N)cc1OC [SDZ-205,557 hydrochloride] | 0.162
56 | Oc1ccc(/C=C/c2cc(O)cc(O)c2)cc1 [Resveratrol] | 0.391
57 | COc1ccc(/C=C/C(=O)Nc2ccccc2C(=O)O)cc1OC [Tranilast] | -0.184
58 | CCCc1c(-c2ccc(O)cc2)nn(-c2ccc(O)cc2)c1-c1ccc(O)cc1 [1,3,5-tris(4-hydroxyphenyl)-4-propyl-1H-pyrazole] | 0.157
59 | NC[C@@H]1O[C@H](O[C@H]2[C@@H](O)[C@H](O[C@@H]3[C@@H](O)[C@H](N)C[C@H](N)[C@H]3O[C@H]3O[C@H](CO)[C@@H](O)[C@H](O)[C@H]3N)O[C@@H]2CO)[C@H](N)[C@@H](O)[C@@H]1O [Paromomycin sulfate] | 0.13
60 | CC[C@]1(O)C[C@H]2CN(CCc3c([nH]c4ccccc34)[C@@](C(=O)OC)(c3cc4c(cc3OC)N(C=O)[C@H]3[C@@](O)(C(=O)OC)[C@H](OC(C)=O)[C@]5(CC)C=CCN6CC[C@]43[C@@H]65)C2)C1 [Vincristine sulfate] | 0.0308
61 | Cc1cccc(C)c1OCC(C)N (stereo not drawn) [Mexiletene hydrochloride] | 0.157
62 | COc1ccccc1N1CCN(CCCCN2C(=O)c3ccccc3C2=O)CC1 [NAN-190 hydrobromide] | -0.033
63 | NC(=O)c1cn(Cc2c(F)cccc2F)nn1 [Rufinamide] | 0.067
64 | NC(N)=NC(N)=Nc1cccc(Cl)c1 [1-(m-Chlorophenyl)-biguanide hydrochloride] | 0.571
65 | Cc1cccc(C)c1NC(=O)C(C)N (stereo not drawn) [Tocainide hydrochloride] | 0.415
66 | C=CCc1cccc(/C=N/NC(=O)CN2CCN(Cc3ccccc3)CC2)c1O | 0.577
67 | CC[N+](CC)(CC)CCOc1ccc(/C=C/c2ccccc2)cc1 | 0.391
68 | CC(C)C[C@H](NC(=O)[C@H](O)[C@H](N)Cc1ccccc1)C(=O)O [Epibestatin hydrochloride] | 0.188
69 | CCCCCCCCCCCCCCCC(=O)OC(CC(=O)O)C[N+](C)(C)C (racemic) [Palmitoyl-DL-Carnitine chloride] | 0.347
70 | COc1ccc2c(c1OC)C(=O)O[C@@H]2[C@H]1c2c(cc3c(c2OC)OCO3)CCN1C [Noscapine hydrchloride] | 0.531
71 | O=C(C1CCCCC1)N1CC(=O)N2CCc3ccccc3C2C1 (stereo not drawn) [Praziquantel] | 0.342
72 | C(=C\c1ccccc1)/CN1CCN(C(c2ccccc2)c2ccccc2)CC1 [Cinnarizine] | 0.218
73 | COc1ccc2c(c1)c(CC(=O)O)c(C)n2C(=O)c1ccc(Cl)cc1 [Indomethacin] | 0.495
